Some of the results follow. These are further read-outs of the screen, such as a control signal, another cell line or another target. No call is given for them. Compounds called inactive in the main read-out are mostly missing here.

This assay is described as follows: inhibitors of insulin promoter-driven GFP, primary screen, imaging, TRM-6 cells (human fetal islet line), eGFP reporter, cell count (AID 1273;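 further: cells exposed to compound for 48 h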). The conditions noted are these: measured here: cell count, toxicity, at 2 µM, reporter expression induced with tamoxifen.
On to `CCOC(=O)CSc1nc2cc(C)ccc2cc1C#N`, for which the normalized cell count was found to be 60.4%.

The molecule `O=C(CCCN1C(=O)CCC1=O)Nc1cccc(C(F)(F)F)c1` registered a normalized cell count of 135%.

For `Cc1ccc(C(=O)NC(=S)Nc2nc(-c3cccc([N+](=O)[O-])c3)cs2)c(Cl)c1`, the normalized cell count worked out at 57%.

`CCOC(=O)CSc1nc(C)c2ccccc2n1`: the normalized cell count is 54.2%.

Turning to `COc1ccc(-c2nc(SC)n(S(=O)(=O)c3ccccc3)n2)cc1`, the normalized cell count was 136%.

`c1ccc(Cc2nnc3sc(-c4cccs4)nn23)cc1` returned a normalized cell count of 177%.

On to `COc1ccccc1N1CCN(S(=O)(=O)Cc2ccccc2Cl)CC1`, for which the normalized cell count amounted to 115%.

The molecule `COc1ccc2nc(C)c3cc(C)oc3c2c1` yielded a normalized cell count of 48%.

As for `COc1ccc(-c2n[nH]c3c2C(c2ccc(OC)c(OC)c2)N(c2ccccc2)C3=O)cc1` (centres undefined), the normalized cell count was determined as 68%.

For `Cc1noc(C)c1COc1ccc(C(=O)OC(C)C(=O)Nc2ccc(N3CCOCC3)cc2)cc1` (centres undefined), the normalized cell count was 90%.

For `C(=C1/CCCC2=C1Nc1ncnn1C2c1ccccc1)/c1ccccc1` (centres undefined), the normalized cell count was found to be 52.1%.

`C=CCSc1ncc(C(=O)OCC)c(N)n1` came in with a normalized cell count of 181%.

For the molecule `CN(Cc1nc2ccccc2n1C)S(=O)(=O)c1ccc(F)cc1`, the normalized cell count came out at 154%.

For the molecule `O=C1OC2CC3CC1CC(O)(C3)C2` (centres undefined), the normalized cell count was 101%.

In the case of `CCC(=O)N/C(N)=N/c1nc(C)c2cc(OC)ccc2n1`, the normalized cell count is 139%.

Regarding `CC1CN(S(=O)(=O)c2ccc(C(=O)Nc3sc4c(c3C(N)=O)CCN(C)C4)cc2)CC(C)O1` (centres undefined), the normalized cell count is 127%.

`O=c1c2[nH]c3ccc(Br)cc3c2ncn1CCCn1ccnc1` came in with a normalized cell count of 133%.

On to `Clc1ccc2nc(N3CCCCC3)[nH]c2c1`, for which the normalized cell count stood at 139%.

The molecule `CSc1nnc(NC(=O)C2CCCCC2)s1` came in with a normalized cell count of 221%.

In turn, `CC(=O)c1cccc(NC(=O)c2nccnc2C(=O)O)c1` showed a normalized cell count of 135%.

In the case of `CCN1C(=O)N[C@@H](c2ccc(Br)cc2)C(C(=O)OC)=C1C`, the normalized cell count was determined as 60.9%.

With `C/C(=N\NC(=O)c1c(C)nc2ccccn12)c1ccco1`, the normalized cell count is 55.1%.

Molecule `CCC1CCCCN1C(=O)CSc1nnc(-c2ccco2)o1` (centres undefined) displayed a normalized cell count of 42.8%.

`CN(Cc1ccccc1)C(=O)c1cnc2n(c1=O)CCS2` gave a normalized cell count of 102%.

For the molecule `Cc1ccc(-c2nnn(CC(=O)N(CC(=O)NC(C)C)c3cnc4ccccc4c3)n2)o1`, the normalized cell count was 64.2%.

As for `COc1cccc(C(=O)NC2=NCCS2)c1`, the normalized cell count is 103%.

In turn, `Cc1ccc(C2=NC(=O)/C(=C/c3cc(O)c(O)c(Br)c3)S2)cc1` gave a normalized cell count of 115%.

Consider `COc1cc(NC(=S)NCCN2CCOCC2)cc(OC)c1`, for which the normalized cell count was 118%.

Consider `O=C(CSc1nc2ccccc2[nH]1)Nc1c(F)cccc1F`, for which the normalized cell count was 66.7%.

`S=C(Nc1ccc2cn[nH]c2c1)Nc1ccccc1Cl` registered a normalized cell count of 171%.

`CCCCn1c(C)nc2c(=O)n(C)c(=O)[nH]c21` gave a normalized cell count of 101%.

Molecule `N#Cc1ccc(C(=O)Nc2cccc3ncccc23)c(F)c1` returned a normalized cell count of 128%.

`CCNc1c2c(nc3ccccc13)CC(C)(C)CC2=O` came in with a normalized cell count of 185%.

`COc1ccc(Cn2nnnc2C(c2cccs2)N2CCOCC2)cc1` (centres undefined) had a normalized cell count of 0%.

Turning to `O=C(c1cc2cc(Br)ccc2oc1=O)N1CCN(c2ccccn2)CC1`, the normalized cell count amounted to 126%.

In the case of `CC(Cc1cccs1)NC(=O)c1cccc(Cl)c1` (centres undefined), the normalized cell count stood at 202%.

As to `CCCC(=O)n1nc(-c2ccc(Cl)cc2)nc1SC`, the normalized cell count came out at 113%.

Molecule `Cc1noc(NS(=O)(=O)c2ccc(NC(=O)Nc3ccc(Cl)c(Cl)c3)cc2)c1C` registered a normalized cell count of 73.3%.

As to `Oc1c(/C=N/Nc2cccc3cccnc23)ccc2ccccc12`, the normalized cell count turned out to be 154%.

As to `Nc1ccc2nc(SCC(=O)N3CCOCC3)sc2c1`, the normalized cell count amounted to 53.1%.

Take `C/C(=N\Nc1nc2ccccc2[nH]1)c1ccc(N2CCOCC2)cc1`: the normalized cell count was 68.8%.

Consider `O=C(CN1C(=O)c2ccccc2C1=O)Nc1sc2c(c1C(=O)NCc1ccco1)CCCC2`, for which the normalized cell count amounted to 29.5%.

The molecule `O=C(CSc1oc(-c2ccco2)nc1S(=O)(=O)c1ccccc1)NCC1CCCO1` (centres undefined) had a normalized cell count of 88.9%.

The molecule `O=C(Cn1cnc2c(cnn2-c2ccc(F)cc2)c1=O)N1CCN(c2ccccc2)CC1` had a normalized cell count of 40.2%.

`CC(c1ccccc1)N1CCc2[nH]c(=S)[nH]c(=O)c2C1` (centres undefined) returned a normalized cell count of 60.3%.

The molecule `CCOC(=O)c1ccc(NC(=O)c2cc3ccccc3o2)cc1` had a normalized cell count of 130%.

Take `Cc1nn(C2CCS(=O)(=O)C2)c(Cl)c1/C=C/C(=O)OCC(=O)Nc1ccccc1OC(F)F` (centres undefined): the normalized cell count was found to be 99.1%.

Regarding `O=C(CN1CCOc2ccccc21)NCc1ccc(F)cc1`, the normalized cell count came to 106%.

Take `COc1cc2c(cc1OC)-c1cc(OCc3ccccc3Cl)nc(=O)n1CC2`: the normalized cell count turned out to be 32.9%.

As to `O=c1c2ccccc2c(/C=N/c2ncn[nH]2)c(O)n1Cc1ccccc1`, the normalized cell count was 90%.

Take `Cc1ccc(N2CC(O)=C(c3ccccc3)C2=N)cc1`: the normalized cell count amounted to 20.6%.

The molecule `CCc1ccc(S(=O)(=O)c2nnn3c2nc(NCCNC(C)=O)c2ccccc23)cc1` yielded a normalized cell count of 36.4%.

Regarding `Cc1[nH]c2ccc(F)cc2c(=O)c1SC(F)(F)C(F)F`, the normalized cell count was determined as 80.2%.

Molecule `CCCC(=O)NC(=S)Nc1ccc(Cl)cn1` had a normalized cell count of 123%.

The molecule `CCOc1ccc2nc(-c3ccccc3)[nH]c2c1` registered a normalized cell count of 118%.

Molecule `c1ccc(Cn2nnc3c(N4CCc5ccccc5C4)ncnc32)cc1` yielded a normalized cell count of 76.6%.

Turning to `Cc1cc(NC(=O)c2ccccc2-c2ccccc2C(=O)O)no1`, the normalized cell count was 75.1%.

As to `Cc1cccc(NC(=S)N=Nc2c(O)n(CN3CCOCC3)c3ccccc23)c1C`, the normalized cell count was 95%.

In turn, `CCC(C)/C(C)=N/NC(=O)c1ccc(CSc2nc3ccccc3s2)cc1` (centres undefined) returned a normalized cell count of 0%.
